From paper PMC7174303
These are yes or no findings as the source states them, for the method shown. In cells and extracts the contact can be indirect. Some binding calls cover weakened binding; strength is not graded here.

Chains of the proteins cited; added tags and fusions are not shown.
UniProt Q04887: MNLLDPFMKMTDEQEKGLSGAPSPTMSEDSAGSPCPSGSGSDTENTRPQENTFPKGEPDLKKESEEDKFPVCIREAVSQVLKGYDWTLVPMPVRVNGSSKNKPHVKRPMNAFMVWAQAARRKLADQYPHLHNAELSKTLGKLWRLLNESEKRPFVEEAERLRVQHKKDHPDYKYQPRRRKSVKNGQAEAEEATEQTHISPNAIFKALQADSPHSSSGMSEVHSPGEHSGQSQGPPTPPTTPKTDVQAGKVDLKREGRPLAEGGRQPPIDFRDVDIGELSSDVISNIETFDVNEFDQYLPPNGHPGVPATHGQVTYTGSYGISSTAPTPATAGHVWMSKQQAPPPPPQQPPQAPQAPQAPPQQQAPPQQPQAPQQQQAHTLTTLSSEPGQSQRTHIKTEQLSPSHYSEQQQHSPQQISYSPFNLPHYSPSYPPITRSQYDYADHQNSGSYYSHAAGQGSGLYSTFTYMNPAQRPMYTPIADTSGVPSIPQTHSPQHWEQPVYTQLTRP

Molecular target: Sox9 (sex-determining region Y (SRY) box 9) (mouse (endogenous in mouse kidney)) (UniProt Q04887)
Assay: co-IP; endogenous proteins in renal tissues (control and AKI); Cdkl5-IP (anti-CDKL5, Millipore MABS1132) and reverse Sox9-IP (anti-SOX9, Abcam ab3697); lysates in modified RIPA buffer with 0.2% beta-maltoside; western blot

B1: cyclin-dependent kinase-like 5 (Cdkl5) (enzyme, UniProt Q3UTQ8 1-938)
chain: MKIPNIGNVMNKFEILGVVGEGAYGVVLKCRHKETHEIVAIKKFKDSEENEEVKETTLRELKMLRTLKQENIVELKEAFRRRGKLYLVFEYVEKNMLELLEEMPNGVPPEKVKSYIYQLIKAIHWCHKNDIVHRDIKPENLLISHNDVLKLCDFGFARNLSEGNNANYTEYVATRWYRSPELLLGAPYGKSVDMWSVGCILGELSDGQPLFPGESEIDQLFTIQKVLGPLPSEQMKLFYSNPRFHGLRFPAVNHPQSLERRYLGILNSVLLDLMKNLLKLDPADRYLTEQCLNHPTFQTQRLLDRSPSRSTKRKPYHVESSTLSNRNQSTKGAALQTHHRSNSKDIQNLSVGLPRAEEGLPANESFLNGNLAGATLSPMHTKTYQASTQPGSSSKDLTNNNIPHLLSPKEAKSKTEFDFNIDTKPSEGPGTKYLKSSTRSQQNRHSFMESSQSKAGTLQPSEKQSRHSYIDTIPQSSRSPSYRTKAKSHGALSDSKSVSNLSEARAQITETNTSRYFPSSCLDLNSPTSPTPTRHTDTRTLLSPSGRNNRNEGTLDSRRTTTRHSKTMEELKLPEHMDSSHSHSLSAPHESFSYGLGYTSPFSSQQRPHRHSMYVTRDKVRAKGLDGSLSIGQGMAARANSLQLLSPQPGEQLPPEMTVARPSVKESSREGASSFHTRQKSEGGVYHDPHSDDGTAPKENRHLYNDPVPRRVGSFYRVPSPRPDNSFHENNVSTRVSSLPSDSSSGTNHSKRQPGFDPWKSPENISHADQLKEKEKQGFFRSMKKKKKKTQTVPNTDGPDLLTLQKAIHSSSTASSRPKEWRPEKLSDLQTQSQPLKSLRKLLHLSSSTNHPASSDPRFQPLTAQQAKNSFSEIRIHPLSQATGGSSNIRQEPTPKGRPALQLPGSSLLRYNGWKHSRSRSSQPDEVIFLASHEKWKQ
Q: With B1 as the binder, how does the binding read?
A: binds
